{"source": "PubChem BioAssay AID1224828 (NIAID, 2016)", "screen": "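Find genes required for NF-kappaB p65 moving into the nucleus after LPS in mouse macrophages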 (primary screen)", "cells": "mouse RAW264.7 G9 macrophage reporter cells (GFP-p65, Tnf promoter-mCherry)", "reagent": "siRNA pool against mouse genes, 100 nM", "duration": "2 days siRNA transfection, then 40 min LPS before fixation", "treatment": "LPS (Salmonella minnesota R595) at 10 ng/ml", "read-out": "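Imaged p65 nuclear translocation ratio, normalised to the plate median, converted to robust z-scores and averaged across two replicates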", "reading the numbers": "p65 translocation robust z-score: higher = more nuclear NF-kappaB p65 after LPS than the plate median; nuclear/cytoplasmic p65 ratio: higher = more nuclear NF-kappaB p65", "rule for the call": "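Active if robust z is above 3.3 (negative regulators) or below -1.56, the Tlr4 control median (positive regulators); activity score 50 or more; control wells not called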", "calls": "active = hit (p65 shift raised or lowered); inactive = no clear change", "note": "In all, the deposit lists about 17,000 reagents; this is an unselected part. 762 of them (4.5%) were called active. 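Active calls include both raised and lowered p65 entry, mostly lowered; wells with fewer than 50 cells lack a z-score.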 Raw values vary from plate to plate and are shown uncorrected."}
{"Gene": "Or2j6", "p65 translocation robust z-score": 1.07, "nuclear/cytoplasmic p65 ratio, rep 1": 1.59, "nuclear/cytoplasmic p65 ratio, rep 2": 1.39, "low cell count flag": "enough cells to score", "outcome": "inactive"}
{"Gene": "Mrps23", "p65 translocation robust z-score": -2.1, "nuclear/cytoplasmic p65 ratio, rep 1": 1.44, "nuclear/cytoplasmic p65 ratio, rep 2": 1.28, "low cell count flag": "enough cells to score", "outcome": "active"}
{"Gene": "Map3k21", "p65 translocation robust z-score": -0.76, "nuclear/cytoplasmic p65 ratio, rep 1": 1.7, "nuclear/cytoplasmic p65 ratio, rep 2": 1.29, "low cell count flag": "enough cells to score", "outcome": "inactive"}
{"Gene": "Epsti1", "nuclear/cytoplasmic p65 ratio, rep 1": 1.52, "nuclear/cytoplasmic p65 ratio, rep 2": 1.59, "low cell count flag": "fewer than 50 cells per well; well left out of scoring", "outcome": "inactive"}
{"Gene": "Mrpl38", "p65 translocation robust z-score": 0.32, "nuclear/cytoplasmic p65 ratio, rep 1": 1.9, "nuclear/cytoplasmic p65 ratio, rep 2": 1.58, "low cell count flag": "enough cells to score", "outcome": "inactive"}
{"Gene": "Nsmaf", "p65 translocation robust z-score": -0.48, "nuclear/cytoplasmic p65 ratio, rep 1": 1.35, "nuclear/cytoplasmic p65 ratio, rep 2": 1.38, "low cell count flag": "enough cells to score", "outcome": "inactive"}
{"Gene": "Neurod2", "p65 translocation robust z-score": -0.68, "nuclear/cytoplasmic p65 ratio, rep 1": 1.63, "nuclear/cytoplasmic p65 ratio, rep 2": 1.52, "low cell count flag": "enough cells to score", "outcome": "inactive"}
{"Gene": "Ephb4", "p65 translocation robust z-score": 1.87, "nuclear/cytoplasmic p65 ratio, rep 1": 1.99, "nuclear/cytoplasmic p65 ratio, rep 2": 1.62, "low cell count flag": "enough cells to score", "outcome": "inactive"}
{"Gene": "Nek6", "p65 translocation robust z-score": 0.68, "nuclear/cytoplasmic p65 ratio, rep 1": 1.82, "nuclear/cytoplasmic p65 ratio, rep 2": 1.44, "low cell count flag": "enough cells to score", "outcome": "inactive"}
{"Gene": "Prox1", "p65 translocation robust z-score": -0.54, "nuclear/cytoplasmic p65 ratio, rep 1": 1.46, "nuclear/cytoplasmic p65 ratio, rep 2": 1.31, "low cell count flag": "enough cells to score", "outcome": "inactive"}
{"Gene": "Gsdmc3", "p65 translocation robust z-score": -0.33, "nuclear/cytoplasmic p65 ratio, rep 1": 1.44, "nuclear/cytoplasmic p65 ratio, rep 2": 1.5, "low cell count flag": "enough cells to score", "outcome": "inactive"}
{"Gene": "Nsg2", "p65 translocation robust z-score": 1.72, "nuclear/cytoplasmic p65 ratio, rep 1": 2.1, "nuclear/cytoplasmic p65 ratio, rep 2": 1.68, "low cell count flag": "enough cells to score", "outcome": "inactive"}

Continued (2 carried over from the part before).
{"Gene": "Gsdmc3", "p65 translocation robust z-score": -0.33, "nuclear/cytoplasmic p65 ratio, rep 1": 1.44, "nuclear/cytoplasmic p65 ratio, rep 2": 1.5, "low cell count flag": "enough cells to score", "outcome": "inactive"}
{"Gene": "Nsg2", "p65 translocation robust z-score": 1.72, "nuclear/cytoplasmic p65 ratio, rep 1": 2.1, "nuclear/cytoplasmic p65 ratio, rep 2": 1.68, "low cell count flag": "enough cells to score", "outcome": "inactive"}
{"Gene": "A330041J22Rik", "p65 translocation robust z-score": -0.91, "nuclear/cytoplasmic p65 ratio, rep 1": 1.36, "nuclear/cytoplasmic p65 ratio, rep 2": 1.4, "low cell count flag": "enough cells to score", "outcome": "inactive"}
{"Gene": "Slc10a3", "p65 translocation robust z-score": 2.49, "nuclear/cytoplasmic p65 ratio, rep 1": 1.73, "nuclear/cytoplasmic p65 ratio, rep 2": 1.19, "low cell count flag": "enough cells to score", "outcome": "inactive"}
{"Gene": "Plk1", "nuclear/cytoplasmic p65 ratio, rep 1": 0, "nuclear/cytoplasmic p65 ratio, rep 2": 1.3, "low cell count flag": "fewer than 50 cells per well; well left out of scoring", "outcome": "inactive"}
{"Gene": "Mcrs1", "p65 translocation robust z-score": -1.69, "nuclear/cytoplasmic p65 ratio, rep 1": 1.48, "nuclear/cytoplasmic p65 ratio, rep 2": 1.28, "low cell count flag": "enough cells to score", "outcome": "active"}
{"Gene": "Inf2", "p65 translocation robust z-score": -1.67, "nuclear/cytoplasmic p65 ratio, rep 1": 1.18, "nuclear/cytoplasmic p65 ratio, rep 2": 1.24, "low cell count flag": "enough cells to score", "outcome": "active"}
{"Gene": "Vmn1r222", "nuclear/cytoplasmic p65 ratio, rep 1": 1.22, "nuclear/cytoplasmic p65 ratio, rep 2": 1.12, "low cell count flag": "fewer than 50 cells per well; well left out of scoring", "outcome": "inactive"}
{"Gene": "Kics2", "p65 translocation robust z-score": 0.54, "nuclear/cytoplasmic p65 ratio, rep 1": 1.5, "nuclear/cytoplasmic p65 ratio, rep 2": 1.6, "low cell count flag": "enough cells to score", "outcome": "inactive"}
{"Gene": "Fcgrt", "p65 translocation robust z-score": 1.38, "nuclear/cytoplasmic p65 ratio, rep 1": 1.7, "nuclear/cytoplasmic p65 ratio, rep 2": 1.5, "low cell count flag": "enough cells to score", "outcome": "inactive"}
{"Gene": "Arhgap10", "p65 translocation robust z-score": 1.07, "nuclear/cytoplasmic p65 ratio, rep 1": 1.7, "nuclear/cytoplasmic p65 ratio, rep 2": 1.72, "low cell count flag": "enough cells to score", "outcome": "inactive"}
